# Source: the supplement of paper PMC8728848
# The list shows a part of the results.
# Tests used:
# Assay in all cases: glycan array binding signal (z-score within array); higher = stronger binding
# Conditions in all cases: glycan notation: IUPAC condensed, linker removed
# [1] = molecular target: Neu5Ac(a2-6)GlcNAc(b1-4)GlcNAc
# How it was run: (§1)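 Glycan array data were curated from 3228 arrays in the Consortium for Functional Glycomics database and kept only where the protein sequence was available. Glycan names were converted to IUPAC-condensed notation, and columns mapping to the same glycan were averaged. The binding signal is a within-array Z-score, averaged across arrays of the same protein sequence at different concentrations or buffers and across linkers. Negative Z-scores can be read as non-binding.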
# [2] = molecular target: Neu5Ac(a2-6)GlcNAc(b1-4)GlcNAc(b1-4)GlcNAc
# How it was run: as §1
# Neu5Ac(a2-8)Neu5Ac = molecular target: Neu5Ac(a2-8)Neu5Ac
# How it was run: as §1
# [3] = molecular target: Neu5Ac(a2-8)Neu5Ac(a2-3)Gal(b1-3)GalNAc(b1-4)[Neu5Ac(a2-3)]Gal(b1-4)Glc
# How it was run: as §1
# [4] = molecular target: Neu5Ac(a2-8)Neu5Ac(a2-3)Gal(b1-3)GalNAc(b1-4)[Neu5Ac(a2-8)Neu5Ac(a2-3)]Gal(b1-4)Glc
# How it was run: as §1
# [5] = molecular target: Neu5Ac(a2-8)Neu5Ac(a2-3)Gal(b1-4)Glc
# How it was run: as §1
# [6] = molecular target: Neu5Ac(a2-8)Neu5Ac(a2-3)Gal(b1-4)GlcNAc
# How it was run: as §1
# [7] = molecular target: Neu5Ac(a2-8)Neu5Ac(a2-3)[Gal(b1-3)GalNAc(b1-4)]Gal(b1-4)Glc
# How it was run: as §1
# [8] = molecular target: Neu5Ac(a2-8)Neu5Ac(a2-3)[GalNAc(b1-4)]Gal(b1-4)Glc
# How it was run: as §1
# [9] = molecular target: Neu5Ac(a2-8)Neu5Ac(a2-8)Neu5Ac
# How it was run: as §1
# [10] = molecular target: Neu5Ac(a2-8)Neu5Ac(a2-8)Neu5Ac(a2-3)Gal(b1-4)Glc
# How it was run: as §1
# [11] = molecular target: Neu5Ac(a2-8)Neu5Ac(a2-8)Neu5Ac(a2-3)[Gal(b1-3)GalNAc(b1-4)]Gal(b1-4)Glc
# How it was run: as §1
# [12] = molecular target: Neu5Ac(a2-8)Neu5Ac(a2-8)Neu5Ac(a2-3)[GalNAc(b1-4)]Gal(b1-4)Glc
# How it was run: as §1
# [13] = molecular target: Neu5Ac(a2-8)Neu5Ac(a2-8)Neu5Ac(a2-8)Neu5Ac(a2-3)[GalNAc(b1-4)]Gal(b1-4)Glc
# How it was run: as §1
# [14] = molecular target: Neu5Ac(a2-8)Neu5Gc(a2-3)Gal(b1-4)GlcNAc
# How it was run: as §1
# [15] = molecular target: Neu5Ac(b2-6)Gal(b1-4)GlcNAc
# How it was run: as §1
# Neu5Ac(b2-6)GalNAc = molecular target: Neu5Ac(b2-6)GalNAc
# How it was run: as §1
# [16] = molecular target: Neu5Ac9Ac(a2-3)Gal(b1-3)GlcNAc
# How it was run: as §1
# [17] = molecular target: Neu5Ac9Ac(a2-3)Gal(b1-4)GlcNAc
# How it was run: as §1
# [18] = molecular target: Neu5Ac9Ac(a2-6)Gal(b1-4)GlcNAc
# How it was run: as §1
# [19] = molecular target: Neu5Gc(a2-3)Gal(b1-3)GlcNAc
# How it was run: as §1
# [20] = molecular target: Neu5Gc(a2-3)Gal(b1-3)[Fuc(a1-4)]GlcNAc
# How it was run: as §1
# Neu5Gc(a2-3)Gal(b1-4)Glc = molecular target: Neu5Gc(a2-3)Gal(b1-4)Glc
# How it was run: as §1
# [21] = molecular target: Neu5Gc(a2-3)Gal(b1-4)GlcNAc
# How it was run: as §1
# [22] = molecular target: Neu5Gc(a2-3)Gal(b1-4)GlcNAc(b1-3)Gal(b1-4)GlcNAc(b1-2)Man(a1-3)[Neu5Gc(a2-3)Gal(b1-4)GlcNAc(b1-3)Gal(b1-4)GlcNAc(b1-2)Man(a1-6)]Man(b1-4)GlcNAc(b1-4)GlcNAc
# How it was run: as §1
# [23] = molecular target: Neu5Gc(a2-3)Gal(b1-4)[Fuc(a1-3)]GlcNAc
# How it was run: as §1
# [24] = molecular target: Neu5Gc(a2-6)Gal(b1-4)GlcNAc
# How it was run: as §1
# Neu5Gc(a2-6)GalNAc = molecular target: Neu5Gc(a2-6)GalNAc
# How it was run: as §1
# [25] = molecular target: Neu5Gc(a2-8)Neu5Ac(a2-3)Gal(b1-4)GlcNAc
# How it was run: as §1
# [26] = molecular target: Neu5Gc(a2-8)Neu5Gc(a2-3)Gal(b1-4)GlcNAc
# How it was run: as §1
# [27] = molecular target: Neu5Gc(a2-8)Neu5Gc(a2-3)Gal(b1-4)GlcNAc(b1-3)Gal(b1-4)GlcNAc
# How it was run: as §1
# [28] = molecular target: Neu5Gc(a2-8)Neu5Gc(a2-6)Gal(b1-4)GlcNAc
# How it was run: as §1
# [29] = molecular target: Neu5Gc(b2-6)Gal(b1-4)GlcNAc
# How it was run: as §1
binder,measurement,setting,value
"AT3G09350(27) (Arabidopsis thaliana), Q84J81 (protein) MAKDGPNWDGLLKWSLSHADGTRPTRQLSEEDRKWFMEAMQSQTVDVVKRMKEITLVMQTPEQVLVEHGVTPEDIQDLLDELQEHVESIDMANDLHSIGGLVPLLSFLKNSHANIRAKAADVVSTIVQNNPRSQELVMETNALESLLSNFTSDTDIHARTQALGAISSLIRHNKPGVTAFKLANGYAGLRDALASDSVRFQRKALNLLQYLLQEDDSDRSIATGLGFPRVMMHLASSDDAEIREAALRGLLELSREKNDGSSSIDKSDEKLRQLLEERIKGITLMSQEDLETVKEERQLVDLLWSICYNEPSSLREKGLVVLPGEDALPPDVASKLFEPPLRASAANRNATEKKDEPMKLLGP",glycan array binding signal (z-score),[1],-0.721
same,glycan array binding signal (z-score),[2],-0.499
same,glycan array binding signal (z-score),Neu5Ac(a2-8)Neu5Ac,0.54
same,glycan array binding signal (z-score),[3],-0.731
same,glycan array binding signal (z-score),[4],0.381
same,glycan array binding signal (z-score),[5],-0.427
same,glycan array binding signal (z-score),[6],-0.748
same,glycan array binding signal (z-score),[7],-0.074
same,glycan array binding signal (z-score),[8],-0.077
same,glycan array binding signal (z-score),[9],-0.349
same,glycan array binding signal (z-score),[10],-0.201
same,glycan array binding signal (z-score),[11],-0.064
same,glycan array binding signal (z-score),[12],0.721
same,glycan array binding signal (z-score),[13],-0.375
same,glycan array binding signal (z-score),[14],-0.282
same,glycan array binding signal (z-score),[15],0.639
same,glycan array binding signal (z-score),Neu5Ac(b2-6)GalNAc,-0.887
same,glycan array binding signal (z-score),[16],-0.448
same,glycan array binding signal (z-score),[17],0.004
same,glycan array binding signal (z-score),[18],-0.732
same,glycan array binding signal (z-score),[19],-0.279
same,glycan array binding signal (z-score),[20],-0.489
same,glycan array binding signal (z-score),Neu5Gc(a2-3)Gal(b1-4)Glc,0.999
same,glycan array binding signal (z-score),[21],-0.862
same,glycan array binding signal (z-score),[22],-0.865
same,glycan array binding signal (z-score),[23],-0.374
same,glycan array binding signal (z-score),[24],-0.12
same,glycan array binding signal (z-score),Neu5Gc(a2-6)GalNAc,-0.535
same,glycan array binding signal (z-score),[25],-0.317
same,glycan array binding signal (z-score),[26],-0.815
same,glycan array binding signal (z-score),[27],0.06
same,glycan array binding signal (z-score),[28],-0.645
same,glycan array binding signal (z-score),[29],-0.475

# Part of the list above, tab-delimited.
binder	measurement	setting	value
AT3G09350(27) (Arabidopsis thaliana), Q84J81 (protein) MAKDGPNWDGLLKWSLSHADGTRPTRQLSEEDRKWFMEAMQSQTVDVVKRMKEITLVMQTPEQVLVEHGVTPEDIQDLLDELQEHVESIDMANDLHSIGGLVPLLSFLKNSHANIRAKAADVVSTIVQNNPRSQELVMETNALESLLSNFTSDTDIHARTQALGAISSLIRHNKPGVTAFKLANGYAGLRDALASDSVRFQRKALNLLQYLLQEDDSDRSIATGLGFPRVMMHLASSDDAEIREAALRGLLELSREKNDGSSSIDKSDEKLRQLLEERIKGITLMSQEDLETVKEERQLVDLLWSICYNEPSSLREKGLVVLPGEDALPPDVASKLFEPPLRASAANRNATEKKDEPMKLLGP	glycan array binding signal (z-score)	[13]	-0.375
same	glycan array binding signal (z-score)	[14]	-0.282
